Measured values taken from patent US20190062453A1.

B1: DR5TAA-0067 (antibody, human IgG1, kappa, L234A L235A, V domains shown)
VH: EVQLVETGGGLIQPGGSLRLSCAASGFTVSRYAMIWVRQAPGKGLEYIGFITSDGSTYYADSAKGRFTISRDNSKNTLYLQMNSLRAEDTAVYYCARYTYSDGTDLWGRGTLVTVSS
VL: DIQMTQSPSTLSASVGDRVTITCRASQSISTYLSWYQQKPGKAPKRLIYKASSLASGVPSRFSGSGSGTEFTLTISSLQPDDAATYYCQPNSGIATYGAAFGGGTKVEIKR
B2: DR5TAA-0073 (antibody, human IgG1, kappa, L234A L235A, V domains shown)
VH: QVQLVESGGGLVQPGGSLRLSCSASGFSISRYAMIWVRQAPGKGLEYVGFITSDSSAYYASWAKGRFTISRDNSKNTLYLQMNSLRAEDTAVYYCARYTYSDGTDLWGQGTLVTVSS
VL: B1 VL with T10S, S53T, E70D, D81E
B3: DR5TAA-0066 (antibody, human IgG1, kappa, L234A L235A, V domains shown)
VH: B1 VH
VL: B1 VL with T10S, S53T, E70D, D81E
B4: DR5TAA-0075 (antibody, human IgG1, kappa, L234A L235A, V domains shown)
VH: B1 VH
VL: B1 VL with T10S, R24Q, K42Q, A43P, S53T, E70D, D81E, A83F
B5: DR5TAA-0068 (antibody, human IgG1, kappa, L234A L235A, V domains shown)
VH: B2 VH
VL: B1 VL with T10S, K42Q, A43P, S53T, E70D, D81E, A83F
B6: DR5TAA-0074 (antibody, human IgG1, kappa, L234A L235A, V domains shown)
VH: B1 VH
VL: B1 VL with T10S, K42Q, A43P, S53T, E70D, D81E, A83F
B7: DR5TAA-0010 (antibody, V domains shown)
VH: QSLEESGGRLVKPDETLTLTCTVSGFSLSSNAISWVRQAPGMGLEWIGIIGSSGYTYYASWAKGRFTVSKTSTTVDLEIASPTTEDTATYFCARGYSGASDYSFNLWGPGTLVTVSS
VL: AYDMTQTPDSVEVAVGGTVTIKCQASQTIGDALAWYQQKPGQRPNLLIYRTSTLASGVPSRFSGSGSGTHFTLTISGVECADAATYYCQQGATYNNVLNTFGGGTEVVVKG
B8: DR5TAA-0011 (antibody, V domains shown)
VH: QSVEESGGRLVTPGTPLTLTCTVSGFSISRYAMIWVRQAPGEGLEYIGFITSDSSAYYASWAKGRFTISKTSTTVDLKMTSPTTEDTATYFCARYTYSDGTDLWGPGTLVTVSS
VL: DIVMTQTPASVSEPVGGTVTIKCQASQSISTYLSWYQQKPGQPPKRLIYKASTLASGVPSRFKGSGSGTDFTLTIRDLECADAATYYCQPNSGIATYGAAFGGGTEVVVKG
B9: DR5TAA-0005 (antibody, V domains shown)
VH: QSLEESGGRLVTPGTPLTLTCTASGFSLSSAYMSWVRQAPGKGLEWIGYIYSGSGSTWYASWVKGRFTISKTSTTVDLKITSPTTEDTATYFCARGYSTMGDLWGPGTLVTVSS
VL: QVLTQTPSPVSAAVGGTVTINCQASQSVYNNRLAWYQQKPGQPPKLLIYLASTLASGVPSRFKGSGSGTQFTLTISDLQCDDAATYYCAGGYSGNINAFGGGTEVVVKG
B10: DR5TAA-0019 (antibody, V domains shown)
VH: QSVEESGGRLVTPGTPLTLTCTVSGFSLSNYAMSWVRQAPGKGLEWIGIISSSGTTYYASWAKGRFTISKTSTTVDLKVTSPTTEDTATYFCARETYYGYSYAAGLWGPGTLVTVSS
VL: ALVMTQTPSSVSAAVGGTVTINCQASQNIYSNLAWFQQKPGQPPKLLIYETSKLASGVPSRFSGSGSGTEFTLTISDLECDDAATYYCQSSWHSISTDCAFGGGTEVVVKG
B11: DR5TAA-0006 (antibody, V domains shown)
VH: QSLEESGGRLVTPGTPLTLTCTASGFSLSSNHMSWVRQAPGKGLEWIGYIYAGSGSAYYASWAKGRFTISRTSTTVDLKMTSLTTEDTATYFCAGDAGSSYWEFNLWGPGTLVTVSS
VL: LVMTQTPSSTSEPVGGTVTIKCQASQSIGSSLSWYQQKPGQPPKLLIYHASTLASGVPSRFSGSRSGIQTTLTISGVQCDDAATYYCLGVADARRDDGFAFGGGTEVVVKG
B12: DR5TAA-0013 (antibody, V domains shown)
VH: B11 VH with S27T, L28I, N31Y, G55A, A57T, Y58W, A63V, R71K, G95R
VL: LVMTQTPSSTSEPVGGTVTIKCQASQSIGSSLSWYQQTPGQPPKLLIYTASSLASSVPKRFSGSRSGTQFTLTISGVQCADAATYYCLGIDDVRRDDGFAFGGGTEVVVKG
B13: DR5TAA-0016 (antibody, V domains shown)
VH: QSLEESGGRLVKPDETLTLTCTVSGFSLNNYAMSWVRQAPGKGLEWIGMINKYGTKYYATWTKGRATISKTSTTLDLEITSPTTEDTATYFCARVRYAGDDYAEWLDVWGQGILVTVSS
VL: DIVMTQTASPVSAAVGGTVTINCQASQSISSSYVSWYQQKPGQPPKLLIYKASTLASGVPSRFSGSGSGTQLSLTIRGVQCDDAATYYCLYGYSDVSSSEYVFGGGTEVVVRG

Target: human DR5 (recombinant, fusion format not stated for the assay) (human)
Assay: SPR, antibody captured by anti-human Fc, analyte at 500 nM

binding, binds:
B1
B2
B3
B4
B5
B6

Target: human DR5 (recombinant, fusion format not stated for the assay) (human)
Assay: SPR (Biacore), antibody captured on the chip, human DR5 at 200 nM in solution; RU binding divided by RU capture relative to the unstressed sample

binding, binds:
B7
B8
B9
B10
B11
B12
B13

Changes are numbered by the printed parent chain. No constants are given. Whether binding was seen depends on the method and setting. A result given as binding can be weak or reduced; the word gives no strength.
